{"source": "patent US20240018227A1", "about": "“COMPOSITIONS AND METHODS FOR TREATING DISORDERS CHARACTERIZED WITH TGF-BETA ACTIVITY” (THE JOHNS HOPKINS UNIVERSITY, priority 2020, published 2024)", "origin": "cited, not measured here", "conditions": "in the mouse", "note": "Some results were stated once for a whole list of compounds, not compound by compound."}
{"smiles": "CC/C(=C(\\c1ccccc1)c1ccc(OCCN(C)C)cc1)c1ccccc1", "note": "[Tamoxifen, tamoxifen]", "values": [{"measurement": "half-life", "result": "6 to 12", "unit": "h"}]}
